Reference: article PMC13195094
These are yes or no findings as the source states them, for the method shown. In cells and extracts the contact can be indirect. Here binding means that the protein was enriched with, or labelled near, the bait; the list need not be complete. For part of these data: A no says only that the protein was not detected with the bait. Values belong to the molecule of their own block, whether it stands above or below them.

Chains of the proteins cited; added tags and fusions are not shown. Lines headed by an entry give the natural chain unless they say otherwise; changes in a name come on top. A line that says so, or that is headed by a name, gives the form on record, which may keep a tag or linker. Residues count along the entry.
UniProt P20700: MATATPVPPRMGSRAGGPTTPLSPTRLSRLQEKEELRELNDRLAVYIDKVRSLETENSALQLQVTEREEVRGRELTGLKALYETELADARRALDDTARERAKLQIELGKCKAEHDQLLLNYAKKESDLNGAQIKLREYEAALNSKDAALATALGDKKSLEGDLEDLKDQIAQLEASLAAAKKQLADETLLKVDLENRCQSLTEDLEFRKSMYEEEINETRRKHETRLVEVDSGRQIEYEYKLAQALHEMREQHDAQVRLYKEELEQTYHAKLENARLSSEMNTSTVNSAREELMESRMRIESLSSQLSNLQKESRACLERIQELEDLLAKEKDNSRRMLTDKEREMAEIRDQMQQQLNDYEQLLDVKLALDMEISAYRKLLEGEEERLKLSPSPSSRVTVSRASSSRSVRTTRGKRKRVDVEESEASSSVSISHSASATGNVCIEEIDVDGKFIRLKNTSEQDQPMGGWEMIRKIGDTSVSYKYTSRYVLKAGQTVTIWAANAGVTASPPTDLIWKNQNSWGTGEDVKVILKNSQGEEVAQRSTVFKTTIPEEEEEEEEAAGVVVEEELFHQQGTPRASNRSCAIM
N-terminal GFP-tagged truncated Lamin B1 lacking the NLS (LMNB1_N409): residues 1-409 of P20700
UniProt P63104: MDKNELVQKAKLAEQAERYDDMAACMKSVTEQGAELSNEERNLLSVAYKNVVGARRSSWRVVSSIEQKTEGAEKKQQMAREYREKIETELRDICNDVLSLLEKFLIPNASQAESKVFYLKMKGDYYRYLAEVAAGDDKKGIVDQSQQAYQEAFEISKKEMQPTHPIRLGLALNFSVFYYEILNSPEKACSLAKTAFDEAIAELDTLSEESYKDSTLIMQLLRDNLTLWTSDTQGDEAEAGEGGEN
UniProt P62258: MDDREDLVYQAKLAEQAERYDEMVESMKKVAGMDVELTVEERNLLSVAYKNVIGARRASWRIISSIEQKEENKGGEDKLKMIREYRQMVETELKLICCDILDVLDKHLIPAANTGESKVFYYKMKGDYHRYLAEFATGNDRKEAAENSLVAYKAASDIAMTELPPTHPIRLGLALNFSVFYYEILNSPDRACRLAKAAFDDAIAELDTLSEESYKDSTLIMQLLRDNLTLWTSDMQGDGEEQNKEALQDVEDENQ

Assays:
[1] = target: N-terminal GFP-tagged full-length Lamin B1 (human) (UniProt P20700); assay: affinity purification with mass spectrometry; whole cell extracts of hiPSC-MNs expressing GFP, GFP-LMNB1_FL or LMNB1_N409; anti-GFP nanobody agarose beads, at least 2 h at 4 °C; lysis in 50 mM Tris-HCl pH 7.4, 150 mM NaCl, 0.5 mM EDTA, 2% Triton X-100 with DNase I and RNase A; washes with 150 mM and 500 mM NaCl; specific binding: at least 5-fold over GFP control; three replicates
[2] = target: N-terminal GFP-tagged truncated Lamin B1 lacking the NLS (LMNB1_N409) (human) (UniProt P20700); assay: as above
[3] = target: N-terminal GFP-tagged truncated Lamin B1 lacking the NLS (LMNB1_N409) (human) (UniProt P20700); assay: affinity purification with mass spectrometry; lysates of SH-SY5Y-derived neurons expressing GFP, GFP-LMNB1_FL or LMNB1_N409; anti-GFP nanobody agarose beads; same buffers; normalised by GFP peptides; one replicate, fold change alone
[4] = target: N-terminal GFP-tagged full-length Lamin B1 (human) (UniProt P20700); assay: as above

binding [1]: binds
binding [2]: binds
Molecule: karyopherin subunit alpha 6 (from UniProt O60684 1-536)

binding [3]: binds
binding [2]: binds
Molecule: 14-3-3ζ (from UniProt P63104 1-245)

binding [3]: binds
Molecule: 14-3-3ε (from UniProt P62258 1-255)

binding [3]: binds
binding [2]: binds
B1: 14-3-3γ (protein, UniProt P61981 1-247)
chain: MVDREQLVQKARLAEQAERYDDMAAAMKNVTELNEPLSNEERNLLSVAYKNVVGARRSSWRVISSIEQKTSADGNEKKIEMVRAYREKIEKELEAVCQDVLSLLDNYLIKNCSETQYESKVFYLKMKGDYYRYLAEVATGEKRATVVESSEKAYSEAHEISKEHMQPTHPIRLGLALNYSVFYYEIQNAPEQACHLAKTAFDDAIAELDTLNEDSYKDSTLIMQLLRDNLTLWTSDQQDDDGGEGNN

binding [4]: no binding
binding [3]: binds
B2: 14-3-3 η (protein, UniProt Q04917 1-246)
chain: MGDREQLLQRARLAEQAERYDDMASAMKAVTELNEPLSNEDRNLLSVAYKNVVGARRSSWRVISSIEQKTMADGNEKKLEKVKAYREKIEKELETVCNDVLSLLDKFLIKNCNDFQYESKVFYLKMKGDYYRYLAEVASGEKKNSVVEASEAAYKEAFEISKEQMQPTHPIRLGLALNFSVFYYEIQNAPEQACLLAKQAFDDAIAELDTLNEDSYKDSTLIMQLLRDNLTLWTSDQQDEEAGEGN

binding [4]: no binding
binding [3]: binds
B3: MICAL1 (protein, UniProt Q8TDZ2 1-1067)
chain: MASPTSTNPAHAHFESFLQAQLCQDVLSSFQELCGALGLEPGGGLPQYHKIKDQLNYWSAKSLWTKLDKRAGQPVYQQGRACTSTKCLVVGAGPCGLRVAVELALLGARVVLVEKRTKFSRHNVLHLWPFTIHDLRALGAKKFYGRFCTGTLDHISIRQLQLLLLKVALLLGVEIHWGVTFTGLQPPPRKGSGWRAQLQPNPPAQLANYEFDVLISAAGGKFVPEGFKVREMRGKLAIGITANFVNGRTVEETQVPEISGVARIYNQSFFQSLLKATGIDLENIVYYKDDTHYFVMTAKKQCLLRLGVLRQDWPDTNRLLGSANVVPEALQRFTRAAADFATHGKLGKLEFAQDAHGQPDVSAFDFTSMMRAESSARVQEKHGARLLLGLVGDCLVEPFWPLGTGVARGFLAAFDAAWMVKRWAEGAESLEVLAERESLYQLLSQTSPENMHRNVAQYGLDPATRYPNLNLRAVTPNQVRDLYDVLAKEPVQRNNDKTDTGMPATGSAGTQEELLRWCQEQTAGYPGVHVSDLSSSWADGLALCALVYRLQPGLLEPSELQGLGALEATAWALKVAENELGITPVVSAQAVVAGSDPLGLIAYLSHFHSAFKSMAHSPGPVSQASPGTSSAVLFLSKLQRTLQRSRAKENAEDAGGKKLRLEMEAETPSTEVPPDPEPGVPLTPPSQHQEAGAGDLCALCGEHLYVLERLCVNGHFFHRSCFRCHTCEATLWPGGYEQHPGDGHFYCLQHLPQTDHKAEGSDRGPESPELPTPSENSMPPGLSTPTASQEGAGPVPDPSQPTRRQIRLSSPERQRLSSLNLTPDPEMEPPPKPPRSCSALARHALESSFVGWGLPVQSPQALVAMEKEEKESPFSSEEEEEDVPLDSDVEQALQTFAKTSGTMNNYPTWRRTLLRRAKEEEMKRFCKAQTIQRRLNEIEAALRELEAEGVKLELALRRQSSSPEQQKKLWVGQLLQLVDKKNSLVAEEAELMITVQELNLEEKQWQLDQELRGYMNREENLKTAADRQAEDQVLRKLVDLVNQRDALIRFQEERRLSELALGTGAQG

binding [3]: binds
B4: 14-3-3τ (protein, UniProt P27348 1-245)
chain: MEKTELIQKAKLAEQAERYDDMATCMKAVTEQGAELSNEERNLLSVAYKNVVGGRRSAWRVISSIEQKTDTSDKKLQLIKDYREKVESELRSICTTVLELLDKYLIANATNPESKVFYLKMKGDYFRYLAEVACGDDRKQTIDNSQGAYQEAFDISKKEMQPTHPIRLGLALNFSVFYYEILNNPELACTLAKTAFDEAIAELDTLNEDSYKDSTLIMQLLRDNLTLWTSDSAGEECDAAEGAEN
